Assay results reported in PubChem BioAssay AID493014 (National Center for Advancing Translational Sciences (NCATS), 2011).
Some of the results follow. Further columns of the screen follow, without active or inactive calls. Compounds called inactive in the main read-out are mostly missing here. Potencies come from curve fits of mixed quality, noted in brackets.

Test: qHTS Assay to Find Inhibitors of Chronic Active B-Cell Receptor Signaling
Conditions: ABC-DLBCL IkBa-CBG/CBR reporter, luminescence ratio (green luciferase fused to IkBa over red control in TMD8 lymphoma cells), 4 h
Procedure, shortened: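 TMD8 ABC-DLBCL cells carrying doxycycline-inducible green luciferase fused to IkappaBalpha plus unfused red luciferase were exposed to compounds (up to 46 uM) for 4 hrs at 37C. Activity came from the overlap-corrected green/red luminescence ratio.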

[1] = measured here: CBR red luminescence, cell number
[2] = measured here: IkBa-CBG green luminescence

Structure (SMILES) | AC50 [1] | AC50 [2]
COc1c(O)ccc(/C=N\NC(=O)c2ccc3c(c2)OCO3)c1[N+](=O)[O-] | 11.2 µM [falling, single point] | –
COc1ccc(C(C(=O)NCc2ccccc2)N(Cc2cccnc2)C(=O)c2snc(C(N)=O)c2N)cc1OC (centres undefined) | 31.6 µM [rising, single point] | –
O=C(NC(C(=O)c1ccccc1)n1ccc(=O)[nH]c1=O)c1ccccc1 (centres undefined) | 18.4 µM [falling, single point] | –
Cc1cc(C(=O)N/N=C2\CC(=O)CC(C)(C)C2)c2ccccc2n1 | 6.51 µM [rising, partial curve, poor fit] | –
CCOC(=O)N1CCN(S(=O)(=O)c2ccc(C(=O)Nc3nc4ccccc4s3)cc2)CC1 | 0.316 µM [falling, full curve, poor fit] | –
CN(C)c1ccc(/C=C(/C#N)C(=O)NCc2ccccc2)o1 | 18.4 µM [falling, single point] | –
O=C(NCCCN1CCCC1=O)C(=O)NCC1OCCN1S(=O)(=O)c1ccc(Br)cc1 (centres undefined) | 10 µM [falling, partial curve, poor fit] | –
Cc1cnc(NC(=O)c2sc(Nc3ccccc3)nc2N)o1 | 2.82 µM [falling, full curve, poor fit] | –
CC(=O)N1CCC(=NNc2ccc(S(N)(=O)=O)cc2[N+](=O)[O-])CC1 | 10 µM [falling, single point] | –
N#Cc1c(N)n(-c2cccc(O)c2)c2nc3ccccc3nc12 | 20 µM [rising, single point] | –
CCC(=O)Nc1nc(=S)ss1 | 29.1 µM [rising, single point] | –
CCc1c(C(=O)Nc2ccc(C)c(C)c2)[nH]c(C)c1C(C)=O | 3.55 µM [rising, partial curve, poor fit] | –
COc1cc(/C=C(\C#N)c2nc3ccccc3n2C)cc(OC)c1O | 2.82 µM [rising, partial curve, poor fit] | –
O=C(Nc1nccs1)C1CCN(S(=O)(=O)c2c(Cl)cccc2Cl)CC1 | 8.2 µM [falling, partial curve] | –
Nc1c(-c2ccccc2)cnc2ncnn12 | 3.55 µM [rising, single point] | –
O=C(CNC(=O)c1ccco1)N=Nc1c(O)n(CCc2ccccc2)c2ccccc12 | 3.55 µM [rising, partial curve] | 2.82 µM [falling, full curve]
Fc1cc(Cl)c(OCc2noc(-c3ccsc3)n2)c(Cl)c1 | 35.5 µM [rising, single point] | –
Cc1nc2c(F)c(F)c(C(F)(F)F)c(F)c2[nH]1 | 0.631 µM [falling, partial curve, poor fit] | –
COc1ccc2c(c1)CCc1sc(NC(=O)c3ccco3)nc1-2 | 29.1 µM [falling, single point] | –
COCCN(CCOC)Cc1c(C)[nH]c2ccccc2c1=O | 5.8 µM [falling, partial curve, poor fit] | –
O=C(NC1CCCCC1)C1CCN(c2nnnn2-c2ccccc2)CC1 | 15.8 µM [rising, partial curve] | –

3 structures from above, sorted by length of the SMILES, largest number first:
Structure (SMILES) | AC50 [1] | AC50 [2]
O=C(Nc1nccs1)C1CCN(S(=O)(=O)c2c(Cl)cccc2Cl)CC1 | 8.2 µM [falling, partial curve] | –
COCCN(CCOC)Cc1c(C)[nH]c2ccccc2c1=O | 5.8 µM [falling, partial curve, poor fit] | –
Nc1c(-c2ccccc2)cnc2ncnn12 | 3.55 µM [rising, single point] | –

Additional records.

Structure (SMILES) | AC50 [1] | AC50 [2]
O=C(Nc1ccc2c(c1)OCO2)[C@@H]1CCCN1S(=O)(=O)c1cccc2cccnc12 | 2.31 µM [rising, single point] | –
CC(C)c1ccc(NC(=O)c2cccc(Br)c2)cc1 | 35.5 µM [falling, single point] | –
CN1CCN(C(=O)c2cccc(COc3cc(Cl)ccc3Cl)c2)CC1 | 9.2 µM [rising, partial curve] | –
COc1cccc(CN(C(=O)c2ccco2)C2CCS(=O)(=O)C2)c1 (centres undefined) | 0.794 µM [rising, full curve, poor fit] | –
Cc1cc(C(C)(C)C)nc2[nH]n(-c3ccccc3)c(=O)c12 | 1.64 µM [falling, full curve] | –
Cc1ccccc1CSCC(=O)c1c(N)n(CC(C)C)c(=O)n(C)c1=O | 29.1 µM [rising, single point] | –
NC(=O)c1ccc(SCC(=O)OCC(=O)N2CCN(C(=O)c3ccco3)CC2)c([N+](=O)[O-])c1 | 23.1 µM [rising, partial curve, poor fit] | –
O=C(COC(=O)COc1ccccc1)Nc1ncc([N+](=O)[O-])s1 | 10.3 µM [falling, partial curve] | –
Cc1[nH]c2ccc(OC(F)(F)F)cc2c1CCN1C(=O)c2ccc(C(=O)O)cc2C1=O | 35.5 µM [falling, single point] | 12.6 µM [rising, partial curve, poor fit]
COc1ccccc1Nc1nnc(SCc2cc(=O)n3cc(C)ccc3n2)s1 | 3.26 µM [falling, partial curve, poor fit] | 25.9 µM [falling, partial curve, poor fit]
Cc1cccc2c1CC(C)(C)N=C2C1=C(O)CCCC1=O | 15.8 µM [falling, single point] | –
Cc1ccc(Cn2nc(C)c(/C=N/NC(=O)c3cccnc3)c2C)cc1 | 35.5 µM [falling, partial curve, poor fit] | –
COc1cc(C(=O)Nc2nccs2)c(Br)c(OC)c1OC | 6.51 µM [falling, single point] | –
Cc1cc(NC(=O)CCC2CCCCC2)no1 | 1.3 µM [falling, full curve] | –
COc1ccccc1C(=O)NCCCn1cc(Br)c(C)n1 | 32.6 µM [rising, single point] | –
COc1ccccc1Nc1nnc(SCC(=O)N2CCCC2)s1 | 10 µM [falling, partial curve, poor fit] | –
CCOC(=O)c1c(C)[nH]c(C(=O)COC(=O)CNC(=O)c2ccccc2Cl)c1C | 29.1 µM [rising, single point] | –
COc1ccc(NC(=O)C2CCCCN2N)cc1OCC(C)C (centres undefined) | 29.1 µM [falling, single point] | –
O=C(NCc1cn2ccsc2n1)c1cccc(C(F)(F)F)c1 | 11.6 µM [rising, partial curve] | –
O=C(CN1C(=O)CSc2ccc(S(=O)(=O)N3CCCCC3)cc21)NCc1cccnc1 | 6.51 µM [falling, partial curve, poor fit] | –
